Laboratory results from the supplement of paper PMC12819154, “High-throughput peptide-centric local stability assay extends protein–ligand identification to membrane proteins, tissues and bacteria” (Nature Structural & Molecular Biology, 2025).
The other results are listed elsewhere or left out. Most values lie at the level of the controls, where differences are scatter.

By UniProt entry, the sequences of proteins in these tests, tags left out. Where a name states a change or a piece, a line headed by the entry shows the natural chain unless it says otherwise.
UniProt Q8N8A2: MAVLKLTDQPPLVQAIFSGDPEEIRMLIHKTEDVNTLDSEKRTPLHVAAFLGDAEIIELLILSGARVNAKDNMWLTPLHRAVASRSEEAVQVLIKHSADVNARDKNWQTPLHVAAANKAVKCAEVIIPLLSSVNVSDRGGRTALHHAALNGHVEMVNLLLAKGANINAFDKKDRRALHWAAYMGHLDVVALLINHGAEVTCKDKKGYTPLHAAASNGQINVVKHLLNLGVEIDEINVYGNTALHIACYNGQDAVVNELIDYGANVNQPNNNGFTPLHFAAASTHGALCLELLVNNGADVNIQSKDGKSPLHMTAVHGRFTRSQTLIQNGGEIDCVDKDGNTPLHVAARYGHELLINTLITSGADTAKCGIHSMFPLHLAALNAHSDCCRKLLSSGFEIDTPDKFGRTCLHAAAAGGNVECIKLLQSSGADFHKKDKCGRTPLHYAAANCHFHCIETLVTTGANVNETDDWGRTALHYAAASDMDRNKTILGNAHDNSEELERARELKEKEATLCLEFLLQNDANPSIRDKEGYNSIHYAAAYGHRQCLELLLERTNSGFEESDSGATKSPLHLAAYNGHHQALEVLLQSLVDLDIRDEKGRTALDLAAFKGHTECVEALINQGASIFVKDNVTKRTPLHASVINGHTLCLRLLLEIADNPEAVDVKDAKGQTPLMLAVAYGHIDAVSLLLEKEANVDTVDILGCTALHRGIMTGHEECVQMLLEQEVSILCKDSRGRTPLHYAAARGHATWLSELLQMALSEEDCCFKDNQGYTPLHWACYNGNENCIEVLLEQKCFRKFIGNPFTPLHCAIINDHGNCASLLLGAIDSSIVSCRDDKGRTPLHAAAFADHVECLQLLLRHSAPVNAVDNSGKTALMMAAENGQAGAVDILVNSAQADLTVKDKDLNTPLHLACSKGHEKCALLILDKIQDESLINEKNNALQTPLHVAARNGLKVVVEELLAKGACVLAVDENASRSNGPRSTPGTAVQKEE
UniProt Q8NCW5: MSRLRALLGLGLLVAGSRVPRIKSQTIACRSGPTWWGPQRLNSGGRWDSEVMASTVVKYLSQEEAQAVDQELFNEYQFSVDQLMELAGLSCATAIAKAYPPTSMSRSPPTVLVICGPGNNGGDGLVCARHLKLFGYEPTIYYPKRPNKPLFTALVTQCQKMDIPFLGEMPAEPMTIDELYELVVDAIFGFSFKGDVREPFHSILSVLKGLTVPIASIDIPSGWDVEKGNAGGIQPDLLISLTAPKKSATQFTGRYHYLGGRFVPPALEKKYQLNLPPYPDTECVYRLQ
UniProt Q8NFX7: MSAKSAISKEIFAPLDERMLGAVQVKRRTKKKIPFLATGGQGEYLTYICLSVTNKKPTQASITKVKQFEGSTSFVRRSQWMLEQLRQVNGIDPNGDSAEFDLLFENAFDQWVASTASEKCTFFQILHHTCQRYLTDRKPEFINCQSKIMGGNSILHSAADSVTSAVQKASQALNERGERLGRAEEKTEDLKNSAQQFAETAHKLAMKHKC
UniProt Q8N5J2: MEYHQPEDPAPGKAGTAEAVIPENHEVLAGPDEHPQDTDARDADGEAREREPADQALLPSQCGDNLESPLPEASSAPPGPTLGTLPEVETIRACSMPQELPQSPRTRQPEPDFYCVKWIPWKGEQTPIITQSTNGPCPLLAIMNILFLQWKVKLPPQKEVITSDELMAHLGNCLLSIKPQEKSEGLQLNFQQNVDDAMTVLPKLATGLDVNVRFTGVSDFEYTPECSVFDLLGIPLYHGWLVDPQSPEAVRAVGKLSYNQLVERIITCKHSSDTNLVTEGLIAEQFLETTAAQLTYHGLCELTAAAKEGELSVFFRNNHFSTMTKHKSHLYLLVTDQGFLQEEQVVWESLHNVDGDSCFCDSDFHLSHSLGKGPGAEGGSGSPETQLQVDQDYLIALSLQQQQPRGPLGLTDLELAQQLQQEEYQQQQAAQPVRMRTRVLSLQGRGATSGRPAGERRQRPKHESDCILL
UniProt Q8N3J2: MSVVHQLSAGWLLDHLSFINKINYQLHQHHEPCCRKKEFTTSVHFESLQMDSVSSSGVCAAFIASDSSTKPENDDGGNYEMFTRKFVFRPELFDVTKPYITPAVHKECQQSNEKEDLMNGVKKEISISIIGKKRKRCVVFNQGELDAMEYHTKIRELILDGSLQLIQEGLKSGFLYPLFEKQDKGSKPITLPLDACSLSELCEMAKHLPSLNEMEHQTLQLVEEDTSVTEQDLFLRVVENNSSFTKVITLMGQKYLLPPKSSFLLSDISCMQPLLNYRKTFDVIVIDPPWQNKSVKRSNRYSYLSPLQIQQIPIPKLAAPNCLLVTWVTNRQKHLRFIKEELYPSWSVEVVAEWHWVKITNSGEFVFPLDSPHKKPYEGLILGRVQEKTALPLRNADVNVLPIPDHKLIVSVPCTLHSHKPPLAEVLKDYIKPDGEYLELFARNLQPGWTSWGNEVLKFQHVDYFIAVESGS
UniProt Q8NEP9: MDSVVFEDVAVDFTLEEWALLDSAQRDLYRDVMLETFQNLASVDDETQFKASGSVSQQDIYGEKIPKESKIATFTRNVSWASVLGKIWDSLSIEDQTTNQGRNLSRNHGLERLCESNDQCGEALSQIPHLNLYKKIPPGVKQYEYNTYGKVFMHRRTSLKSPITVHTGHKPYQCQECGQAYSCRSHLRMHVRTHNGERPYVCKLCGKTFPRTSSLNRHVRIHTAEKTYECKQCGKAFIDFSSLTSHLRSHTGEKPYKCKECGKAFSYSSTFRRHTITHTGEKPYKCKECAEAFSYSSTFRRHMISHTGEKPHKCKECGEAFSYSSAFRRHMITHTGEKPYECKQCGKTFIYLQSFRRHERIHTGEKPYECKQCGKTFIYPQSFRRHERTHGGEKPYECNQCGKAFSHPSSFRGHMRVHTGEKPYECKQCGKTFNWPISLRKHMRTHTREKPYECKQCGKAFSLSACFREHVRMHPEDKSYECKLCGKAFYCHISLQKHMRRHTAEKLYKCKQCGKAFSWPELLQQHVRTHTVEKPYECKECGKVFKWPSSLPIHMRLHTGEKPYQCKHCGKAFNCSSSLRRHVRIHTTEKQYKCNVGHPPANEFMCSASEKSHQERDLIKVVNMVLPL
UniProt Q8NB46: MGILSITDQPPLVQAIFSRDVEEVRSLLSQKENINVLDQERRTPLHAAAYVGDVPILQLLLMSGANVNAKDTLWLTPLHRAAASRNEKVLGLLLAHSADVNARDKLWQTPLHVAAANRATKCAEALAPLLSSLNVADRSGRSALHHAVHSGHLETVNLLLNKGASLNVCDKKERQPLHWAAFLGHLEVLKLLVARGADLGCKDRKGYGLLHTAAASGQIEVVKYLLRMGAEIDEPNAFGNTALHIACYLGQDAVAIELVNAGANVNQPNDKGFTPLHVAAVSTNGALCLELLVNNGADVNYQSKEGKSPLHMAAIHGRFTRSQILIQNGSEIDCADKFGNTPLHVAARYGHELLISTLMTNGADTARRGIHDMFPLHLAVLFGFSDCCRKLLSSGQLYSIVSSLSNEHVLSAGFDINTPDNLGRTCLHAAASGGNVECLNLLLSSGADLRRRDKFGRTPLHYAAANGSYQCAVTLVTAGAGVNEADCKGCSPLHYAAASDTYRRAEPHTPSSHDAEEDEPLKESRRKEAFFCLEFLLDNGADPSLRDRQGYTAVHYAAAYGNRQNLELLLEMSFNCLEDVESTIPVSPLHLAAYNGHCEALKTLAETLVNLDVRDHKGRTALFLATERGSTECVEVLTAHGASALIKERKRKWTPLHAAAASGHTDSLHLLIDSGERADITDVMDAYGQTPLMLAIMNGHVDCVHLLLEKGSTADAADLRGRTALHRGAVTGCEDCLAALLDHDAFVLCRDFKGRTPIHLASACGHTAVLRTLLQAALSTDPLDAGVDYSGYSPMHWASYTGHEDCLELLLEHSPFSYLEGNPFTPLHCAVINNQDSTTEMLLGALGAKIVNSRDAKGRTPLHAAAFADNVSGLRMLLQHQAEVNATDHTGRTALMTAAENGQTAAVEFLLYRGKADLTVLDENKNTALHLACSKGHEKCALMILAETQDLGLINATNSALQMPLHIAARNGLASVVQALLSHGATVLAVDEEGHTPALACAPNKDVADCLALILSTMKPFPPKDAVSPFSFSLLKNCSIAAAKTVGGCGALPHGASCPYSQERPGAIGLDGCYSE
UniProt Q8N2S1: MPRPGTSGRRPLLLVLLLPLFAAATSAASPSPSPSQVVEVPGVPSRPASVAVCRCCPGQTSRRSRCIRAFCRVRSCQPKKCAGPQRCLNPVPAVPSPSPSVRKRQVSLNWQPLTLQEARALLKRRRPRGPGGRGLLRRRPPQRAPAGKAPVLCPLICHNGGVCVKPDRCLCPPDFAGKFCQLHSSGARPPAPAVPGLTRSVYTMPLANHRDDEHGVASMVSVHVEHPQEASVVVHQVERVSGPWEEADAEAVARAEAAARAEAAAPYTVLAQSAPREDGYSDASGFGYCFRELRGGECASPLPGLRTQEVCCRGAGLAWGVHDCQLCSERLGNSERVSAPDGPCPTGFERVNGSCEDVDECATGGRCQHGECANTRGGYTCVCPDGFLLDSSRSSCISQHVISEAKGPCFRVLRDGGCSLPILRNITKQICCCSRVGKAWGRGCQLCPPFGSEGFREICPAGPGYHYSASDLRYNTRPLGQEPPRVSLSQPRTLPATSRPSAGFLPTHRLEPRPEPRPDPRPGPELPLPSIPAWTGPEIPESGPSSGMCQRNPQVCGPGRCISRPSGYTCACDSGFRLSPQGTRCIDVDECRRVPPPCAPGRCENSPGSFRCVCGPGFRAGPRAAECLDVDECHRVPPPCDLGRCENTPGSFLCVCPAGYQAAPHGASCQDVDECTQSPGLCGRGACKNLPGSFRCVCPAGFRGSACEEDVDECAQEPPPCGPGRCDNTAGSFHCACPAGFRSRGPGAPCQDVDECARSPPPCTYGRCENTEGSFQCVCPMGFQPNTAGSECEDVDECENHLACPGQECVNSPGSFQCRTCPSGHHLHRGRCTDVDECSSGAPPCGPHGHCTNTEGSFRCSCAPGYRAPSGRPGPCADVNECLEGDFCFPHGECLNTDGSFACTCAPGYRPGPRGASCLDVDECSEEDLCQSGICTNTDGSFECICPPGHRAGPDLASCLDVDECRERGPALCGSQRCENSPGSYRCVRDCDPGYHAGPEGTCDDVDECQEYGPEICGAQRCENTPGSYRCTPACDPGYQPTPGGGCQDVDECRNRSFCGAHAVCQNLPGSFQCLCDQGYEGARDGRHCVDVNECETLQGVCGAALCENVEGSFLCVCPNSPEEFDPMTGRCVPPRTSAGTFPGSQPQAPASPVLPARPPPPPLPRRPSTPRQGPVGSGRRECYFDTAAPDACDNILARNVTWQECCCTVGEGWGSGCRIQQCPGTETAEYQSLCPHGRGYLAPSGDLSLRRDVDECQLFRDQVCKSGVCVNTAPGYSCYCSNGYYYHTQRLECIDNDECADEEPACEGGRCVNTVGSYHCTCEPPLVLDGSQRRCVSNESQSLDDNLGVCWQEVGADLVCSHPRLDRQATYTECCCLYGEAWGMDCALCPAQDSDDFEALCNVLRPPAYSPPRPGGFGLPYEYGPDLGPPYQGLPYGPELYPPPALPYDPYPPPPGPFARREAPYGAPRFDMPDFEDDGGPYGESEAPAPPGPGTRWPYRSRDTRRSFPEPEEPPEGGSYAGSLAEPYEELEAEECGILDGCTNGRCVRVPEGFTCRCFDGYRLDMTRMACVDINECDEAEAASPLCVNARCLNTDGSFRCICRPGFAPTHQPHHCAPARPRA
UniProt Q8N4S0: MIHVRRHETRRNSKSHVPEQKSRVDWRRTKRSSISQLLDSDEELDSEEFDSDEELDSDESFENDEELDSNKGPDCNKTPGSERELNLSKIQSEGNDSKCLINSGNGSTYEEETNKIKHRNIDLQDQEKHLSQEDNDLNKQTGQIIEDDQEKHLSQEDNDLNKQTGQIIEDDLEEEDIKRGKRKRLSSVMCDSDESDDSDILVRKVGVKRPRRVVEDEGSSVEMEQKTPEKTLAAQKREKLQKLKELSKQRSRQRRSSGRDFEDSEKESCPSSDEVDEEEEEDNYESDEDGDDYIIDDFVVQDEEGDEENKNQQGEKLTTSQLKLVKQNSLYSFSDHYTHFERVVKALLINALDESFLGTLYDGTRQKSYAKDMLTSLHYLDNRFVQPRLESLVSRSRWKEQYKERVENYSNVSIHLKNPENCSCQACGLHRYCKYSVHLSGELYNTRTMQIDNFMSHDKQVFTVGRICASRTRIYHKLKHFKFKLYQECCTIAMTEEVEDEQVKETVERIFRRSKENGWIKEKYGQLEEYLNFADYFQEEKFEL

Compound: Cc1nc(Nc2ncc(C(=O)Nc3c(C)cccc3Cl)s2)cc(N2CCN(CCO)CC2)n1 [dasatinib]
Assay: log2 fold change of tryptic peptide abundance, ligand vs vehicle (limited proteolysis) (log2 ratio); higher = more trypsin-susceptible (destabilized)
Settings: ligand concentration: 5 uM; sample: K562 cleared lysate

Target | log2 fold change
ANKRD44 (peptide sequence: GANINAFDKK, peptide start residue: 163) (UniProt Q8N8A2) | -0.221
UniProt Q8NCW5 (peptide sequence: YHYLGGR, peptide start residue: 255) | -0.231
ARID1B (peptide sequence: IERGEEPPPEVFSTGDTK, peptide start residue: 1226) (UniProt Q8NFD5) | 0.432
STXBP6 (peptide sequence: NSAQQFAETAHK, peptide start residue: 192) (UniProt Q8NFX7) | -0.17
MINDY1 (peptide sequence: LSYNQLVER, peptide start residue: 256) (UniProt Q8N5J2) | -0.1
METTL4 (peptide sequence: NADVNVLPIPDHK, peptide start residue: 395) (UniProt Q8N3J2) | 0.321
UniProt Q8NEP9 (peptide sequence: ASGSVSQQDIYGEKIPK, peptide start residue: 51) | -0.268
ANKRD52 (peptide sequence: QGYTAVHYAAAYGNR, peptide start residue: 549) (UniProt Q8NB46) | 0.406
LTBP4 (peptide sequence: AGPDLASCLDVDECRER, peptide start residue: 952) (UniProt Q8N2S1) | 0.202
CCDC82 (peptide sequence: TMQIDNFMSHDK, peptide start residue: 448) (UniProt Q8N4S0) | 0.329
